In article PMC11998485:
Results are given in words; binding and its absence hold for the method and conditions named. Binding seen in cells or lysates may run through a third protein. These calls come from enrichment with a bait or labelling near it, and not all partners need be listed. Sequences can lack the tags named with a protein.

Chains of the proteins cited; added tags and fusions are not shown.
UniProt P46934: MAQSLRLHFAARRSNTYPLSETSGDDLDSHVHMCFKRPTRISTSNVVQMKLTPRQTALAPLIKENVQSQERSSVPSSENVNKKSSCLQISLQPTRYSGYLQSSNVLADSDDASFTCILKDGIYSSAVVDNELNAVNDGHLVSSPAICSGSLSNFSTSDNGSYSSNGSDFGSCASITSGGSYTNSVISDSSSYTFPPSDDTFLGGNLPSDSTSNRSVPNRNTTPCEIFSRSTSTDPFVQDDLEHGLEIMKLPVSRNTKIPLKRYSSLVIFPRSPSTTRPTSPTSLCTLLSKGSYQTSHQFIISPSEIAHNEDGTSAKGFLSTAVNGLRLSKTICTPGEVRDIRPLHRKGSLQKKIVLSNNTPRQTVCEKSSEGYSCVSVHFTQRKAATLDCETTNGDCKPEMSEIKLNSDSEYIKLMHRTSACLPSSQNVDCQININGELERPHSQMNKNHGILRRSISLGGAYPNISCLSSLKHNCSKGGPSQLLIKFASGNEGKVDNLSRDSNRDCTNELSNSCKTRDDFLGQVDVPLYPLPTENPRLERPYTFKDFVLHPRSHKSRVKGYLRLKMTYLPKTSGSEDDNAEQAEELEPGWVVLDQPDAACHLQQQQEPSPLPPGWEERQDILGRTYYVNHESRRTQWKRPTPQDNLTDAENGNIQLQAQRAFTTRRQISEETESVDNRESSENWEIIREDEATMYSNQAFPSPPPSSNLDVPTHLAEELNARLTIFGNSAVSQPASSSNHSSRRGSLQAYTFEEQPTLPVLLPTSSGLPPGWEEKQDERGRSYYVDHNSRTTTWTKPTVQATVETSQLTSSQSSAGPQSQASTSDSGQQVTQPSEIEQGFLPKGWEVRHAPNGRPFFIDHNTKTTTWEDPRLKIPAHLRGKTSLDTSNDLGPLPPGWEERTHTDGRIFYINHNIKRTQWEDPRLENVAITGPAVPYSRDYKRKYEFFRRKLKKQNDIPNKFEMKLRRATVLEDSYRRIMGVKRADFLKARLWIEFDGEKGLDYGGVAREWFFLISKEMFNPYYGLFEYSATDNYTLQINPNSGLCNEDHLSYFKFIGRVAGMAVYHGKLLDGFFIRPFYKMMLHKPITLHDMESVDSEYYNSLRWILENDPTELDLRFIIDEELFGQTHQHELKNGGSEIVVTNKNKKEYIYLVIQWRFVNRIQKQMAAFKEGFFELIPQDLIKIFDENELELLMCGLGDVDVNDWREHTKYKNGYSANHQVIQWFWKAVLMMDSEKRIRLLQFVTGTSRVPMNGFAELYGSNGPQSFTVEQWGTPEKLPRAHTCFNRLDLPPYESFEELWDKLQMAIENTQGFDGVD

Biological target: T1, GST-fused UL56 ectodomain (amino acids 1-215) (HSV-1) (UniProt P10240)
T1 sequence: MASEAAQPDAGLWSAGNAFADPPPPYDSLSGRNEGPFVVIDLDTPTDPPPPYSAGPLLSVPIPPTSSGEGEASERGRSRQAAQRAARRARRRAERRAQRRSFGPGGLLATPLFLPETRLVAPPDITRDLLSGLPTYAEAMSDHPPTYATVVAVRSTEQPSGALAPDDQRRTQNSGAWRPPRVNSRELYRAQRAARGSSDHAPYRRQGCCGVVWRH
Experiment: affinity purification with mass spectrometry; GST or GST-UL56 (1-215) expressed in 293T cells; lysis in 1% CHAPS in TBS plus proteinase inhibitors; glutathione beads, extensive washes; eluate on SDS-PAGE with Coomassie blue; bands identified by MS/MS

For “NEDD4 (from UniProt P46934 1-1319) (enzyme)”, the binding was “binds”.
